Experimental data reported in article doi:10.1101/2025.01.16.633295.
These are yes or no findings as the source states them, for the method shown. Binding seen in cells or lysates may run through a third protein. Some results given as binding are weak or reduced against the parent protein; the word gives no strength. Sequences can lack the tags named with a protein.

How the values were obtained:
[1] = target: T1, GST-TIA1 (T-cell intracellular antigen 1) (UniProt P31483); assay: pull-down
T1 sequence: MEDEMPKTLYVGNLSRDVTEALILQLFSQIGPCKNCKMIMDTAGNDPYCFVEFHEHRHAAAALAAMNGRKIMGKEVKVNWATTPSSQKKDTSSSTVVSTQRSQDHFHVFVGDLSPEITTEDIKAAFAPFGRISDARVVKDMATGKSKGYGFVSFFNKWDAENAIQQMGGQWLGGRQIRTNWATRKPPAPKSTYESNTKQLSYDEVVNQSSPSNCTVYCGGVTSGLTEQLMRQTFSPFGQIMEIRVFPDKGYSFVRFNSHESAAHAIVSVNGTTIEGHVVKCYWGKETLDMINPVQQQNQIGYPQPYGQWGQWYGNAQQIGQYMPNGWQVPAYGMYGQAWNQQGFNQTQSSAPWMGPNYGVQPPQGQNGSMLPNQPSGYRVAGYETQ

HA-TIA1 (HEK293T) = target: T2, HA-TIA1 (HEK293T) (UniProt P31483); assay: co-IP
T2 sequence: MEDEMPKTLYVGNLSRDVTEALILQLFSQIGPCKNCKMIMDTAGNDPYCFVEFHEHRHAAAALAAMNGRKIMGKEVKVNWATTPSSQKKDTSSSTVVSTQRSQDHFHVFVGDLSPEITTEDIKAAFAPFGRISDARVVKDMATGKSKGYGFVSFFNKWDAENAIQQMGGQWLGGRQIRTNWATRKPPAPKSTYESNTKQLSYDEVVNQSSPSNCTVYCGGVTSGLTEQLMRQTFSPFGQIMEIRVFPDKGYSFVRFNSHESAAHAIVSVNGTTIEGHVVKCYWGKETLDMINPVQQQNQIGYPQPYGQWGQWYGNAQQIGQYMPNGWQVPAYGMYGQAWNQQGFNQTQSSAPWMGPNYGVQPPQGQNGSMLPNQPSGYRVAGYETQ

Flag-TIA1 (HEK293T) = target: T3, Flag-TIA1 (HEK293T) (UniProt P31483); assay: co-IP
T3 sequence: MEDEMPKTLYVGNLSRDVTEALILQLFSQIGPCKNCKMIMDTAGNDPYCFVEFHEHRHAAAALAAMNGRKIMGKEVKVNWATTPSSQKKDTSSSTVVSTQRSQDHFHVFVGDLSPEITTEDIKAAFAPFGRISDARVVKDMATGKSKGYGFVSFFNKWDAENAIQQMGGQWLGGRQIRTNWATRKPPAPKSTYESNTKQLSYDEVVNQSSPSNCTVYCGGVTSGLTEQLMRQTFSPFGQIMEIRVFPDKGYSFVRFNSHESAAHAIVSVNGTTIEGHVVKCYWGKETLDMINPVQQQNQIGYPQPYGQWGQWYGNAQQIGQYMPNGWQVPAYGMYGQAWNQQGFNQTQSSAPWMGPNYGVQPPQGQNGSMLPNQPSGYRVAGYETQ

Row | Binder | binding [1] | binding (HA-TIA1 (HEK293T)) | binding (Flag-TIA1 (HEK293T))
1 | Annexin A7 (ANXA7), endogenous, rat (protein, UniProt Q6IRJ7 1-485) MSYPGYPPTGYPPFPGYPPAGQESSFPTSGQYPYPSGFPPMGGGAYPPAPSGGYPGAGGYPSPGGYPAPGGYPGTLNPGGPPSYPGGQGFGAPPGGAGFSGYPQPPAQSYGGGPAQVPVPGGFPGGQMPSQYPGGQSPYPGQIDTESFSSYPAFSPVSLDYSSDPAAMTQGTQGTIRPASNFDAMRDAEILRKAMKGFGTDEQAIVDVVSNRSNDQRQQIKAAFKTMYGKDLIKDLKSELSGNMEELILALFMPPTYYDAWSLRKAIQGAGTQERVLIEILCTRTNQEIRDIVRCYQLEFGRELERDIRSDTSGHFERLLVSMCQGNRDESPSINHQMAQEDAQRLYQAGEGRLGTDESCFNMILATRSFPQLRATMEAYSRMANRDLLSSVSREFSGYVESGLKTILQCALNRPAFFAERLYYSMKGAGTDDSTLVRIVVTRSEIDLVQIKQMFTQMYQKTLSTMIASDTSGDYRKLLLAIVGQ | binds |  | 
2 | Myc-ANXA7 (HEK293T) (protein, UniProt Q6IRJ7 1-485) MSYPGYPPTGYPPFPGYPPAGQESSFPTSGQYPYPSGFPPMGGGAYPPAPSGGYPGAGGYPSPGGYPAPGGYPGTLNPGGPPSYPGGQGFGAPPGGAGFSGYPQPPAQSYGGGPAQVPVPGGFPGGQMPSQYPGGQSPYPGQIDTESFSSYPAFSPVSLDYSSDPAAMTQGTQGTIRPASNFDAMRDAEILRKAMKGFGTDEQAIVDVVSNRSNDQRQQIKAAFKTMYGKDLIKDLKSELSGNMEELILALFMPPTYYDAWSLRKAIQGAGTQERVLIEILCTRTNQEIRDIVRCYQLEFGRELERDIRSDTSGHFERLLVSMCQGNRDESPSINHQMAQEDAQRLYQAGEGRLGTDESCFNMILATRSFPQLRATMEAYSRMANRDLLSSVSREFSGYVESGLKTILQCALNRPAFFAERLYYSMKGAGTDDSTLVRIVVTRSEIDLVQIKQMFTQMYQKTLSTMIASDTSGDYRKLLLAIVGQ |  | binds | binds
